Data source: PubChem BioAssay AID602196 (INSERM, 2012)
Screen: 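Modifiers of cisplatin sensitivity in A549 cells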. Cells: human A549 lung cancer cells. Reagents: siRNA pair against human genes. Timing: 48 h transfection before cisplatin; time from cisplatin to read-out not stated. Treatment: cisplatin at a dose killing half of control-siRNA cells; exact dose and duration not given. Measured: 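Shift in cisplatin death relative to control siRNA, from -50 (all cells die) to +50 (no cells die); siRNAs harmful on their own scored 0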. Scale: two-siRNA summed score (-2 to +2): higher = both siRNAs protect from cisplatin killing; -2 means both sensitise. Call rule: 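siRNAs harmful alone (LDH or WST-1) get 0; others get +1 for less and -1 for more cisplatin killing; genes are active when the two siRNAs give the same sign, summing to ±2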. Meaning of the calls: active = both siRNAs shift cisplatin killing the same way; inactive = no consistent shift, or siRNA harmful alone.
Shown is an unselected part of about 23,000 deposited reagents. 455 of them (2%) count as active. 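Active includes both protection and sensitisation; some change values fall well beyond the stated -50 to +50 range.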 Further read-outs or replicates are left out here. No sequences are given here. Not given: the amount of reagent.

no.	target	two-siRNA summed score (-2 to +2)	Call
1	LOC255324	0	inactive
2	CYC1 (cytochrome c1)	-1	inactive
3	RIPK3 (receptor interacting serine/threonine kinase 3)	1	inactive
4	LOC347292	1	inactive
5	ARRDC1-AS1 (ARRDC1 antisense RNA 1)	0	inactive
6	ALKBH5 (alkB homolog 5, RNA demethylase)	-1	inactive
7	ORC6 (origin recognition complex subunit 6)	0	inactive
8	MMP16 (matrix metallopeptidase 16)	-1	inactive
9	FAM178B (family with sequence similarity 178 member B)	0	inactive
10	LINC01120 (long independently transcribed non-coding RNA 1120)	0	inactive
11	SNHG32 (small nucleolar RNA host gene 32)	0	inactive
12	POLA2 (DNA polymerase alpha 2, accessory subunit)	-1	inactive
13	PARP3 (poly(ADP-ribose) polymerase family member 3)	-1	inactive
14	LOC284402	0	inactive
15	TRAF6 (TNF receptor associated factor 6)	0	inactive

Continued; the last 2 above are carried over.
no.	target	two-siRNA summed score (-2 to +2)	Call
14	LOC284402	0	inactive
15	TRAF6 (TNF receptor associated factor 6)	0	inactive
16	DPM3 (dolichyl-phosphate mannosyltransferase subunit 3, regulatory)	1	inactive
17	BLID (BH3-like motif containing, cell death inducer)	0	inactive
18	FLJ45949	0	inactive
19	CALCR (calcitonin receptor)	1	inactive
20	TSLIG3A (tRNA splicing ligase complex subunit 3A)	0	inactive
21	SCUBE3 (signal peptide, CUB domain and EGF like domain containing 3)	0	inactive
22	HRG (histidine rich glycoprotein)	0	inactive
23	POR (cytochrome p450 oxidoreductase)	0	inactive
